Source: the supplement of paper PMC4604168 (melanoma cell lines)
The list shows a part of the results. Repeats are few or missing, and single values can be far off.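 Imaging used 1,536-well plates; nuclei positive for cleaved PARP by antibody were divided by total DNA-stained nuclei to yield the apoptosis fraction. Doses for screening kept most cells viable, and cell lines differ markedly in resting and induced cleaved-PARP levels.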

Columns and labels:
Test in all cases: cleaved PARP positive nuclei fraction relative to DMSO control; melanoma cells; higher = more apoptosis
Conditions in all cases: library dose: low library concentration; 72 h
[1] = tested on: MZ2-MEL
[2] = tested on: MeWo
[3] = tested on: RPMI7951
[4] = tested on: RVH-421
[5] = tested on: SkMel28
[6] = tested on: SkMel2
[7] = tested on: SkMel30
[8] = tested on: SkMel5
[9] = tested on: UACC257
[10] = tested on: UACC62
[11] = tested on: WM115
[12] = tested on: WM1716
[13] = tested on: WM1745
[14] = tested on: WM3526
[15] = tested on: WM3619
[16] = tested on: WM451Lu

Row | Structure (SMILES) | cleaved PARP positive nuclei fraction [1] | cleaved PARP positive nuclei fraction [2] | cleaved PARP positive nuclei fraction [3] | cleaved PARP positive nuclei fraction [4] | cleaved PARP positive nuclei fraction [5] | cleaved PARP positive nuclei fraction [6] | cleaved PARP positive nuclei fraction [7] | cleaved PARP positive nuclei fraction [8] | cleaved PARP positive nuclei fraction [9] | cleaved PARP positive nuclei fraction [10] | cleaved PARP positive nuclei fraction [11] | cleaved PARP positive nuclei fraction [12] | cleaved PARP positive nuclei fraction [13] | cleaved PARP positive nuclei fraction [14] | cleaved PARP positive nuclei fraction [15] | cleaved PARP positive nuclei fraction [16]
1 | Cn1cc(C2=C(c3cn(C4CCN(Cc5ccccn5)CC4)c4ccccc34)C(=O)NC2=O)c2ccccc21 [Enzastaurin] + O=C(O)c1ccc(-c2c[nH]c3ncc(-c4ccccc4)cc23)cc1C1CCCC1 [GSK650394] (first compound 0.8 µM, partner dose 0.16 µM) | 88.7% | 87.6% | 231% | 273% | 612% | 79% | 18.1% | 97.3% | 113% | 268% | 41.3% | 214% | 109% | 60.5% | 95.5% | 53%
2 | CCCS(=O)(=O)Nc1ccc(F)c(C(=O)c2c[nH]c3ncc(Cl)cc23)c1F + Cc1cc(SCc2sc(-c3ccc(C(F)(F)F)c(F)c3)nc2C)ccc1OCC(=O)O [GW0742] (first compound 0.08 µM, partner dose 2 µM) | 88% | 80.5% | 196% | 58.4% | 203% | 87.1% | 32.3% | 64.9% | 187% | 267% | 77.1% | 298% | 108% | 101% | 88.4% | 100%
3 | O=C(Nc1cc(C(F)(F)F)cc(C(F)(F)F)c1)c1cc(Cl)ccc1O + C/C(O)=C(\C#N)C(=O)Nc1cc(Br)ccc1Br [LFM-A13] (first compound 0.016 µM, partner dose 2 µM) | 137% | 110% | 63.7% | 58.2% | 90.4% | 113% | 77.7% | 62.2% | 215% | 135% | 64.2% | 109% | 82.7% | 95.8% | 96.7% | 48.8%
4 | N.N.[Cl][Pt][Cl] [cisplatin] + Cn1cc(/C=C2\C(=O)Nc3cccnc32)c2ccccc21 [GW441756] (first compound 1.6 µM, partner dose 0.4 µM) | 118% | 218% | 111% | 192% | 37.3% | 69.8% | 162% | 405% | 84.8% | 348% | 244% | 123% | 89.9% | 183% | 115% | 133%
5 | CCCCCCCCc1ccc(CCC(N)(CO)CO)cc1 [fingolimod] + Cc1cc(SCc2sc(-c3ccc(C(F)(F)F)c(F)c3)nc2C)ccc1OCC(=O)O [GW0742] (first compound 2 µM, partner dose 2 µM) | 436% | 158% | 144% | 1070% | 34.5% | 248% | 95.4% | 65.7% | 77.4% | 77.8% | 124% | 161% | 124% | 142% | 122% | 170%
6 | N.N.[Cl][Pt][Cl] [cisplatin] + O=C(Nc1cccc(Cl)c1)Nc1ncc(CCNc2ncnc3ccsc23)s1 [SNS314] (first compound 1.6 µM, partner dose 0.0008 µM) | 115% | 126% | 116% | 93.3% | 51.5% | 93.8% | 50.3% | 132% | 77.2% | 106% | 221% | 66.2% | 89.4% | 36.8% | 119% | 186%
7 | CC(=O)c1c(C)c2cnc(Nc3ccc(N4CCNCC4)cn3)nc2n(C2CCCC2)c1=O [palbociclib] + Cc1cc(SCc2sc(-c3ccc(C(F)(F)F)c(F)c3)nc2C)ccc1OCC(=O)O [GW0742] (first compound 0.04 µM, partner dose 2 µM) | 104% | 86.2% | 44.4% | 95.2% | 133% | 112% | 138% | 95.3% | 94.7% | 84.9% | 84.5% | 62.4% | 126% | 50.7% | 125% | 66.5%
8 | Cn1cnc2c(F)c(Nc3ccc(Br)cc3Cl)c(C(=O)NOCCO)cc21 [selumetinib] + Cc1cc(SCc2sc(-c3ccc(C(F)(F)F)c(F)c3)nc2C)ccc1OCC(=O)O [GW0742] (first compound 0.015 µM, partner dose 2 µM) | 216% | 291% | 60.6% | 120% | 278% | 165% | 58.6% | 137% | 116% | 172% | 187% | 139% | 84.9% | 91% | 103% | 62.7%
9 | CC[C@]1(O)C[C@H]2CN(CCc3c([nH]c4ccccc34)[C@@](C(=O)OC)(c3cc4c(cc3OC)N(C=O)[C@H]3[C@@](O)(C(=O)OC)[C@H](OC(C)=O)[C@]5(CC)C=CCN6CC[C@]43[C@@H]65)C2)C1 [vincristine] + O=C(Oc1ccc([N+](=O)[O-])cc1)N1CCC(C(O)(c2ccc3c(c2)OCO3)c2ccc3c(c2)OCO3)CC1 [JZL184] (first compound 0.0001 µM, partner dose 1 µM) | 173% | 187% | 90.6% | 192% | 183% | 114% | 258% | 180% | 626% | 584% | 2300% | 189% | 104% | 120% | 138% | 215%
10 | N.N.[Cl][Pt][Cl] [cisplatin] + COc1cc2ncnc(Nc3ccc(Oc4ccccc4)cc3)c2cc1OC [SrcI1] (first compound 1.6 µM, partner dose 2 µM) | 73% | 208% | 309% | 69.9% | 120% | 127% | 55% | 145% | 76.2% | 92.5% | 75.9% | 78.5% | 103% | 351% | 95.6% | 32.7%
11 | C[C@@H](Oc1cc(-c2cnn(C3CCNCC3)c2)cnc1N)c1c(Cl)ccc(F)c1Cl [Crizotinib] + O=C(Oc1ccc([N+](=O)[O-])cc1)N1CCC(C(O)(c2ccc3c(c2)OCO3)c2ccc3c(c2)OCO3)CC1 [JZL184] (first compound 0.2 µM, partner dose 1 µM) | 142% | 140% | 101% | 108% | 136% | 35.5% | 99.6% | 74.1% | 181% | 85% | 42.7% | 54.3% | 77.9% | 77.7% | 79.2% | 35.2%
